Reference: article PMC6773726, “The ubiquitin-like modifier FAT10 interferes with SUMO activation” (Nature Communications, 2019)
Changes are numbered by the printed parent chain. Results are given in words; binding and its absence hold for the method and conditions named. For some of these results: In cells and extracts the contact can be indirect. Some entries that bind do so weakly or less than the wild type. For some of these results: Sequences can lack the tags named with a protein. Blank lines part the entries; values can stand above or below the binder they belong to.

How the values were obtained:
[1] = biological target: HA-FAT10 (HLA-F adjacent transcript 10, HA-tagged) (human) (UniProt O15205); assay: co-IP; HEK293 cells transiently transfected; NP-40 lysate; immunoprecipitation with anti-HA agarose against HA-FAT10, blot for FLAG; with or without 10 uM MG132 for 6 h
[2] = biological target: HA-FAT10-AV (conjugation incompetent diglycine mutant) (human) (UniProt O15205); assay: as above
[3] = biological target: T1, 6-His-AOS1 (subunit of recombinant AOS1/UBA2) (human) (UniProt Q9UBE0); assay: cross-linking; XL-MS with H12/D12 BS3; AOS1/UBA2 and FAT10 or FAT10-AV at a molar ratio of about 1:6, 10 min on ice, crosslinked 30 min at 37 °C, in the absence of ATP; Tris buffer; both purified
T1 sequence: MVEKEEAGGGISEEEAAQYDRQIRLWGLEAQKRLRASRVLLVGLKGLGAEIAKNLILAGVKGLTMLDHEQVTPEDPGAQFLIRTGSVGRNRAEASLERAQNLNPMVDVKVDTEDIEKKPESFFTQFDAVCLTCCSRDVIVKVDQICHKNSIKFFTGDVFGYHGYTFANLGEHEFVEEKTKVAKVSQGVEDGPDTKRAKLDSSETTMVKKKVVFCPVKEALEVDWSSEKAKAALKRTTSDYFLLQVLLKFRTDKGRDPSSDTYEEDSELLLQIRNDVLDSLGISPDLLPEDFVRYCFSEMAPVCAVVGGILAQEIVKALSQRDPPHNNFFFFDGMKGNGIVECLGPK

[4] = biological target: T2, UBA2 (subunit of recombinant AOS1/UBA2) (human) (UniProt Q9UBT2); assay: as above
T2 sequence: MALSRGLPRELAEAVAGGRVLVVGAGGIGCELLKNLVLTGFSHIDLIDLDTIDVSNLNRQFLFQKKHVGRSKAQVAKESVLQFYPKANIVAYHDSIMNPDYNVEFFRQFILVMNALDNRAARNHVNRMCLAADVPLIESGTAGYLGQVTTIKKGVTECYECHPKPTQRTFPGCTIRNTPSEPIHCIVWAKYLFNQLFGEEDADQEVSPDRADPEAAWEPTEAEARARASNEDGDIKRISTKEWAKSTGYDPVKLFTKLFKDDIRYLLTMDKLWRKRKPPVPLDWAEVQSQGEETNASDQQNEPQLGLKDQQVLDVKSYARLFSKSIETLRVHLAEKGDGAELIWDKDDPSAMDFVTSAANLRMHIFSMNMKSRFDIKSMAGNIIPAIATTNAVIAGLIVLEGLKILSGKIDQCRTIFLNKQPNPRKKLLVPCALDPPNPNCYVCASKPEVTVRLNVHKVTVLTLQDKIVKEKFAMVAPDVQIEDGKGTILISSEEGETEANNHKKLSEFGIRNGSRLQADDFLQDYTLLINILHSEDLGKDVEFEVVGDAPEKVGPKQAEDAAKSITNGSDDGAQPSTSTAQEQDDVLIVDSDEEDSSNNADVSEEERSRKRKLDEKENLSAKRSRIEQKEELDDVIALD

[5] = biological target: T1, 6-His-AOS1 (subunit of recombinant AOS1/UBA2) (human); assay: cross-linking; quantitative XL-MS with H12/D12 BS3; AOS1/UBA2 alone, with SUMO-1 (1:4) or with SUMO-1 and FAT10 (1:4:4), 15 min at 30 °C in reaction buffer with 4 mM ATP, crosslinked 30 min at 37 °C; both purified

binding [1]: binds | binding [2]: binds
B1: JunB-FLAG (JunB with a C-terminal FLAG-tag) (protein, UniProt P17275 1-347)
chain: MCTKMEQPFYHDDSYTATGYGRAPGGLSLHDYKLLKPSLAVNLADPYRSLKAPGARGPGPEGGGGGSYFSGQGSDTGASLKLASSELERLIVPNSNGVITTTPTPPGQYFYPRGGGSGGGAGGAGGGVTEEQEGFADGFVKALDDLHKMNHVTPPNVSLGATGGPPAGPGGVYAGPEPPPVYTNLSSYSPASASSGGAGAAVGTGSSYPTTTISYLPHAPPFAGGHPAQLGLGRGASTFKEEPQTVPEARSRDATPPVSPINMEDQERIKVERKRLRNRLAATKCRKRKLERIARLEDKVKTLKAENAGLSSTAGLLREQVAQLKQKVMTHVSNGCQLLLGVKGHAF

binding [3]: binds | binding [4]: binds
B2: FAT10-AV, recombinant, untagged (natural protein, human, UniProt O15205 2-165, looked up)
chain: APNASCLCVHVRSEEWDLMTFDANPYDSVKKIKEHVRSKTKVPVQDQVLLLGSKILKPRRSLSSYGIDKEKTIHLTLKVVKPSDEELPLFLVESGDEAKRHLLQVRRSSSVAQVKAMIETKTGIIPETQIVTCNGKRLEDGKMMADYGIRKGNLLFLACYCIAV
notes: FAT10 (ubiquitin D, UBD), human, C-terminal diglycine motif changed from GG to AV; also called FAT10 diglycine mutant FAT10-AV; source: E. coli BL21(DE3) (pSUMO-FAT10-AV), purified (HisTrap, tag removal with ULP-1, cation exchange)

binding [3]: binds | binding [4]: binds | binding [5]: binds
B3: FAT10, recombinant, untagged (natural protein, human, UniProt O15205 2-165, looked up)
chain: B2 chain with A163G, V164G
notes: FAT10 (ubiquitin D, UBD), human; also called wild-type FAT10; source: E. coli BL21(DE3) (pSUMO-FAT10), purified (HisTrap, tag removal with ULP-1, cation exchange)
